{"source": "PubChem BioAssay AID504764 (Drosophila RNAi Screening Center, 2011)", "assay": "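Knock-downs that raise or lower a Notch target reporter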 (primary screen)", "system": "Drosophila Kc167 cells", "reagents": "long dsRNA against Drosophila genes", "duration": "about 5 days (4 days dsRNA, then 24 h after transfection)", "challenge": "transfection of constitutively active membrane-tethered Notch lacking the extracellular domain, read 24 h later", "measured": "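Light from a Notch-responsive E(spl)m3 luciferase reporter under active Notch, with control-promoter and no-Notch reporter wells to normalise; raw counts from paired wells a and b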", "scale": "induced reporter light, run 1, well a and induced reporter light, run 1, well b: higher = more light from the Notch target reporter with active Notch; control promoter light, run 1, well a and control promoter light, run 1, well b: higher = more light from the viral control promoter (cell number, transfection, viability); uninduced reporter light, run 1, well a: higher = more light from the Notch target reporter without active Notch", "call rule": "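Hit if the duplicate-averaged log2 ratio of induced to control-promoter light gives a plate-wise z beyond ±2, or induced to uninduced beyond ±1.8; weak-control or discordant-duplicate wells dropped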", "calls": "active = modifier hit (raised or lowered Notch signal); inactive = not a hit", "note": "In all, the deposit lists about 22,000 reagents; this is an unselected part of those with a known target gene and a result. Of all reagents, 403 (1.9%) are marked active. 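Unnormalised raw counts per well; ratio z-scores behind the hit calls and whether each hit raises or lowers signal are not deposited.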 Names joined by + are all predicted targets of the reagent. No sequences are given here. The record does not give: the amount of reagent."}
{"Target gene":"hebe (GeneID 36011)","dsRNA":"DRSC05192","induced reporter light, run 1, well a":56195,"induced reporter light, run 1, well b":59190,"control promoter light, run 1, well a":93375,"control promoter light, run 1, well b":67035,"uninduced reporter light, run 1, well a":3232,"Outcome":"inactive"}
{"Target gene":"hebe (GeneID 36011)","dsRNA":"DRSC06605","induced reporter light, run 1, well a":1.36e5,"induced reporter light, run 1, well b":1.33e5,"control promoter light, run 1, well a":1.40e5,"control promoter light, run 1, well b":1.13e5,"uninduced reporter light, run 1, well a":11350,"Outcome":"inactive"}
{"Target gene":"CG12594 (GeneID 41416)","dsRNA":"DRSC14532","induced reporter light, run 1, well a":79535,"induced reporter light, run 1, well b":76995,"control promoter light, run 1, well a":68395,"control promoter light, run 1, well b":61620,"uninduced reporter light, run 1, well a":5600,"Outcome":"inactive"}
{"Target gene":"Pburs (GeneID 34845)","dsRNA":"DRSC02483","induced reporter light, run 1, well a":1.35e5,"induced reporter light, run 1, well b":1.28e5,"control promoter light, run 1, well a":93405,"control promoter light, run 1, well b":1.33e5,"uninduced reporter light, run 1, well a":11490,"Outcome":"inactive"}
{"Target gene":"ng3 (GeneID 31299)","dsRNA":"DRSC18804","induced reporter light, run 1, well a":93850,"induced reporter light, run 1, well b":82985,"control promoter light, run 1, well a":1.18e5,"control promoter light, run 1, well b":1.63e5,"uninduced reporter light, run 1, well a":6350,"Outcome":"inactive"}
{"Target gene":"Usp8 (GeneID 42509)","dsRNA":"DRSC15876","induced reporter light, run 1, well a":2.58e5,"induced reporter light, run 1, well b":2.04e5,"control promoter light, run 1, well a":2.77e5,"control promoter light, run 1, well b":2.63e5,"uninduced reporter light, run 1, well a":15120,"Outcome":"inactive"}
{"Target gene":"CR18228 (GeneID 8674096)","dsRNA":"DRSC15317","induced reporter light, run 1, well a":62315,"induced reporter light, run 1, well b":60200,"control promoter light, run 1, well a":62475,"control promoter light, run 1, well b":44225,"uninduced reporter light, run 1, well a":3740,"Outcome":"inactive"}
{"Target gene":"CG17364 (GeneID 39543)","dsRNA":"DRSC10269","induced reporter light, run 1, well a":1.50e5,"induced reporter light, run 1, well b":99185,"control promoter light, run 1, well a":1.95e5,"control promoter light, run 1, well b":1.31e5,"uninduced reporter light, run 1, well a":8185,"Outcome":"inactive"}
{"Target gene":"CG17364 (GeneID 39543)","dsRNA":"DRSC10270","induced reporter light, run 1, well a":1.33e5,"induced reporter light, run 1, well b":1.37e5,"control promoter light, run 1, well a":1.60e5,"control promoter light, run 1, well b":1.38e5,"uninduced reporter light, run 1, well a":10310,"Outcome":"inactive"}
{"Target gene":"Spn28F (GeneID 49807)","dsRNA":"DRSC03615","induced reporter light, run 1, well a":1.54e5,"induced reporter light, run 1, well b":2.10e5,"control promoter light, run 1, well a":1.27e5,"control promoter light, run 1, well b":1.59e5,"uninduced reporter light, run 1, well a":23065,"Outcome":"inactive"}
{"Target gene":"Tsp42Eb + CG30160","dsRNA":"DRSC04961","induced reporter light, run 1, well a":69710,"induced reporter light, run 1, well b":1.02e5,"control promoter light, run 1, well a":1.28e5,"control promoter light, run 1, well b":1.37e5,"uninduced reporter light, run 1, well a":4215,"Outcome":"inactive"}
{"Target gene":"Tsp42Eb + CG30160","dsRNA":"DRSC06791","induced reporter light, run 1, well a":1.87e5,"induced reporter light, run 1, well b":2.20e5,"control promoter light, run 1, well a":2.03e5,"control promoter light, run 1, well b":1.98e5,"uninduced reporter light, run 1, well a":15490,"Outcome":"inactive"}

A stretch taken from the entries so far, for reference:
{"Target gene":"Pburs (GeneID 34845)","dsRNA":"DRSC02483","induced reporter light, run 1, well a":1.35e5,"induced reporter light, run 1, well b":1.28e5,"control promoter light, run 1, well a":93405,"control promoter light, run 1, well b":1.33e5,"uninduced reporter light, run 1, well a":11490,"Outcome":"inactive"}
{"Target gene":"ng3 (GeneID 31299)","dsRNA":"DRSC18804","induced reporter light, run 1, well a":93850,"induced reporter light, run 1, well b":82985,"control promoter light, run 1, well a":1.18e5,"control promoter light, run 1, well b":1.63e5,"uninduced reporter light, run 1, well a":6350,"Outcome":"inactive"}
